Test results published in paper PMC10258333.
Results are given in words; binding and its absence hold for the method and conditions named. Binding seen in cells or lysates may run through a third protein. A result given as binding can be weak or reduced; the word gives no strength. Where a sequence is shown, tags or fusion partners need not be part of it.

Tests used:
[1] = molecular target: HD2A fused to nYFP (Arabidopsis thaliana); assay: split reporter; BiFC with nYFP and cYFP fusions from pBiFCt-2in1-NN in Arabidopsis protoplasts; YFP signal by confocal microscopy after 16 h to 24 h in the dark
[2] = molecular target: HD2A-GFP (Arabidopsis thaliana); assay: co-IP; HSI2-myc or HSL1-myc transiently expressed in protoplasts of HD2A-GFP or HD2B-GFP lines; total protein extract (50 mM Tris-HCl pH 8, 150 mM NaCl, 0.1% Nonidet P-40) on GFP-Trap agarose beads at 4°C overnight; immunoblot with anti-Myc antibody

| Binder | binding [1] | binding [2] |
| --- | --- | --- |
| HIGH-LEVEL EXPRESSION OF SUGAR INDUCIBLE2 (HSI2) fused to cYFP (protein, UniProt Q8W4L5 1-790) MFEVKMGSKMCMNASCGTTSTVEWKKGWPLRSGLLADLCYRCGSAYESSLFCEQFHKDQSGWRECYLCSKRLHCGCIASKVTIELMDYGGVGCSTCACCHQLNLNTRGENPGVFSRLPMKTLADRQHVNGESGGRNEGDLFSQPLVMGGDKREEFMPHRGFGKLMSPESTTTGHRLDAAGEMHESSPLQPSLNMGLAVNPFSPSFATEAVEGMKHISPSQSNMVHCSASNILQKPSRPAISTPPVASKSAQARIGRPPVEGRGRGHLLPRYWPKYTDKEVQQISGNLNLNIVPLFEKTLSASDAGRIGRLVLPKACAEAYFPPISQSEGIPLKIQDVRGREWTFQFRYWPNNNSRMYVLEGVTPCIQSMMLQAGDTVTFSRVDPGGKLIMGSRKAANAGDMQGCGLTNGTSTEDTSSSGVTENPPSINGSSCISLIPKELNGMPENLNSETNGGRIGDDPTRVKEKKRTRTIGAKNKRLLLHSEESMELRLTWEEAQDLLRPSPSVKPTIVVIEEQEIEEYDEPPVFGKRTIVTTKPSGEQERWATCDDCSKWRRLPVDALLSFKWTCIDNVWDVSRCSCSAPEESLKELENVLKVGREHKKRRTGESQAAKSQQEPCGLDALASAAVLGDTIGEPEVATTTRHPRHRAGCSCIVCIQPPSGKGRHKPTCGCTVCSTVKRRFKTLMMRRKKKQLERDVTAAEDKKKKDMELAESDKSKEEKEVNTARIDLNSDPYNKEDVEAVAVEKEESRKRAIGQCSGVVAQDASDVLGVTELEGEGKNVREEPRVSS | binds |  |
| HD2B fused to cYFP (protein, UniProt Q56WH4 1-306) MEFWGVAVTPKNATKVTPEEDSLVHISQASLDCTVKSGESVVLSVTVGGAKLVIGTLSQDKFPQISFDLVFDKEFELSHSGTKANVHFIGYKSPNIEQDDFTSSDDEDVPEAVPAPAPTAVTANGNAGAAVVKADTKPKAKPAEVKPAEEKPESDEEDESDDEDESEEDDDSEKGMDVDEDDSDDDEEEDSEDEEEEETPKKPEPINKKRPNESVSKTPVSGKKAKPAAAPASTPQKTEEKKKGGHTATPHPAKKGGKSPVNANQSPKSGGQSSGGNNNKKPFNSGKQFGGSNNKGSNKGKGKGRA | binds |  |

Now from value to binder:

| binding [1] | binding [2] | Binder |
| --- | --- | --- |
|  | binds | HSI2-myc (protein, UniProt Q8W4L5 1-790) MFEVKMGSKMCMNASCGTTSTVEWKKGWPLRSGLLADLCYRCGSAYESSLFCEQFHKDQSGWRECYLCSKRLHCGCIASKVTIELMDYGGVGCSTCACCHQLNLNTRGENPGVFSRLPMKTLADRQHVNGESGGRNEGDLFSQPLVMGGDKREEFMPHRGFGKLMSPESTTTGHRLDAAGEMHESSPLQPSLNMGLAVNPFSPSFATEAVEGMKHISPSQSNMVHCSASNILQKPSRPAISTPPVASKSAQARIGRPPVEGRGRGHLLPRYWPKYTDKEVQQISGNLNLNIVPLFEKTLSASDAGRIGRLVLPKACAEAYFPPISQSEGIPLKIQDVRGREWTFQFRYWPNNNSRMYVLEGVTPCIQSMMLQAGDTVTFSRVDPGGKLIMGSRKAANAGDMQGCGLTNGTSTEDTSSSGVTENPPSINGSSCISLIPKELNGMPENLNSETNGGRIGDDPTRVKEKKRTRTIGAKNKRLLLHSEESMELRLTWEEAQDLLRPSPSVKPTIVVIEEQEIEEYDEPPVFGKRTIVTTKPSGEQERWATCDDCSKWRRLPVDALLSFKWTCIDNVWDVSRCSCSAPEESLKELENVLKVGREHKKRRTGESQAAKSQQEPCGLDALASAAVLGDTIGEPEVATTTRHPRHRAGCSCIVCIQPPSGKGRHKPTCGCTVCSTVKRRFKTLMMRRKKKQLERDVTAAEDKKKKDMELAESDKSKEEKEVNTARIDLNSDPYNKEDVEAVAVEKEESRKRAIGQCSGVVAQDASDVLGVTELEGEGKNVREEPRVSS |
| binds |  | HSI2-LIKE1 (HSL1) fused to cYFP (protein, UniProt Q5CCK4 1-780) MESIKVCMNALCGAASTSGEWKKGWPMRSGDLASLCDKCGCAYEQSIFCEVFHAKESGWRECNSCDKRLHCGCIASRFMMELLENGGVTCISCAKKSGLISMNVSHESNGKDFPSFASAEHVGSVLERTNLKHLLHFQRIDPTHSSLQMKQEESLLPSSLDALRHKTERKELSAQPNLSISLGPTLMTSPFHDAAVDDRSKTNSIFQLAPRSRQLLPKPANSAPIAAGMEPSGSLVSQIHVARPPPEGRGKTQLLPRYWPRITDQELLQLSGQYPHLSNSKIIPLFEKVLSASDAGRIGRLVLPKACAEAYFPPISLPEGLPLKIQDIKGKEWVFQFRFWPNNNSRMYVLEGVTPCIQSMQLQAGDTVTFSRTEPEGKLVMGYRKATNSTATQMFKGSSEPNLNMFSNSLNPGCGDINWSKLEKSEDMAKDNLFLQSSLTSARKRVRNIGTKSKRLLIDSVDVLELKITWEEAQELLRPPQSTKPSIFTLENQDFEEYDEPPVFGKRTLFVSRQTGEQEQWVQCDACGKWRQLPVDILLPPKWSCSDNLLDPGRSSCSAPDELSPREQDTLVRQSKEFKRRRLASSNEKLNQSQDASALNSLGNAGITTTGEQGEITVAATTKHPRHRAGCSCIVCSQPPSGKGKHKPSCTCTVCEAVKRRFRTLMLRKRNKGEAGQASQQAQSQSECRDETEVESIPAVELAAGENIDLNSDPGASRVSMMRLLQAAAFPLEAYLKQKAISNTAGEQQSSDMVSTEHGSSSAAQETEKDTTNGAHDPVN |
|  | binds | HSL1-myc (protein, UniProt Q5CCK4 1-780) MESIKVCMNALCGAASTSGEWKKGWPMRSGDLASLCDKCGCAYEQSIFCEVFHAKESGWRECNSCDKRLHCGCIASRFMMELLENGGVTCISCAKKSGLISMNVSHESNGKDFPSFASAEHVGSVLERTNLKHLLHFQRIDPTHSSLQMKQEESLLPSSLDALRHKTERKELSAQPNLSISLGPTLMTSPFHDAAVDDRSKTNSIFQLAPRSRQLLPKPANSAPIAAGMEPSGSLVSQIHVARPPPEGRGKTQLLPRYWPRITDQELLQLSGQYPHLSNSKIIPLFEKVLSASDAGRIGRLVLPKACAEAYFPPISLPEGLPLKIQDIKGKEWVFQFRFWPNNNSRMYVLEGVTPCIQSMQLQAGDTVTFSRTEPEGKLVMGYRKATNSTATQMFKGSSEPNLNMFSNSLNPGCGDINWSKLEKSEDMAKDNLFLQSSLTSARKRVRNIGTKSKRLLIDSVDVLELKITWEEAQELLRPPQSTKPSIFTLENQDFEEYDEPPVFGKRTLFVSRQTGEQEQWVQCDACGKWRQLPVDILLPPKWSCSDNLLDPGRSSCSAPDELSPREQDTLVRQSKEFKRRRLASSNEKLNQSQDASALNSLGNAGITTTGEQGEITVAATTKHPRHRAGCSCIVCSQPPSGKGKHKPSCTCTVCEAVKRRFRTLMLRKRNKGEAGQASQQAQSQSECRDETEVESIPAVELAAGENIDLNSDPGASRVSMMRLLQAAAFPLEAYLKQKAISNTAGEQQSSDMVSTEHGSSSAAQETEKDTTNGAHDPVN |
